Laboratory results reported in article doi:10.64898/2025.12.17.694357.
Like-named read-outs stand apart in the source and are kept apart here. No constants are given. Whether binding was seen depends on the method and setting. Binding seen in cells or lysates may run through a third protein. Some results given as binding are weak or reduced against the parent protein; the word gives no strength. For some assays here: Where a sequence is shown, tags or fusion partners need not be part of it. Each block holds one molecule with its values, some of them ahead of it.

Protein sequences, listed by entry. Tags and fused reporters are not part of them. Residues count along the entry.
UniProt P32004, 20-1257: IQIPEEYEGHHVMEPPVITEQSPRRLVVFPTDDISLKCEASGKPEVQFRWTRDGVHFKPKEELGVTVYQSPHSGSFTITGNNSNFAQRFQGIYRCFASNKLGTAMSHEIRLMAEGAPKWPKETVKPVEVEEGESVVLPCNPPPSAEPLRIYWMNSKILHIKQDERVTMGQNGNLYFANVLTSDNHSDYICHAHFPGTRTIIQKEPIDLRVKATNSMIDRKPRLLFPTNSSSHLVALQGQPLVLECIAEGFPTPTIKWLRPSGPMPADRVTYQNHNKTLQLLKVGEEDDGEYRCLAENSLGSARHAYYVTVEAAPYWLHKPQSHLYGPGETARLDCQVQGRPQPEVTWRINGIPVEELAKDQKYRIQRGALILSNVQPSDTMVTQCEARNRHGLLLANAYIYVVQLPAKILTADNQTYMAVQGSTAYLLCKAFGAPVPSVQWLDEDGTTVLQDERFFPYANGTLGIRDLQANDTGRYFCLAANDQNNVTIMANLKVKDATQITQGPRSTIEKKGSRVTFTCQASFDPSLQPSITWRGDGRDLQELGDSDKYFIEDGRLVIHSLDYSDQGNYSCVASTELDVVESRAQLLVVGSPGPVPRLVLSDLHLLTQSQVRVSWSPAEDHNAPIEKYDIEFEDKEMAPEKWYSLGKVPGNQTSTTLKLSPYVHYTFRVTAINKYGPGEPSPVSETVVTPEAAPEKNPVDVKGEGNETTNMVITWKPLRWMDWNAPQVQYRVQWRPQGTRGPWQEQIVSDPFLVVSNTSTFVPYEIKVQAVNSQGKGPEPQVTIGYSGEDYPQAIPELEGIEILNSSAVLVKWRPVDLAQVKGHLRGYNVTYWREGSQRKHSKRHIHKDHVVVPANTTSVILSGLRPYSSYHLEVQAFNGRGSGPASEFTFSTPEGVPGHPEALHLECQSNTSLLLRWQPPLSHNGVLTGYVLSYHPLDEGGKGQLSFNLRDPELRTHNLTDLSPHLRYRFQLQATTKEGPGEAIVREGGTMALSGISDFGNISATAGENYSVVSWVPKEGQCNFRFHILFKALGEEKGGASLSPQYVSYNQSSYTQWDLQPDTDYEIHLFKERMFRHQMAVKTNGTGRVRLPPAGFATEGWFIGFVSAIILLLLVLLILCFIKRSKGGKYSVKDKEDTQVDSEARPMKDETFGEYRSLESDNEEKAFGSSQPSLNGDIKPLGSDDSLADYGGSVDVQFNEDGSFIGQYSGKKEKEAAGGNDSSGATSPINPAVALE
UniProt Q14974, whole entry: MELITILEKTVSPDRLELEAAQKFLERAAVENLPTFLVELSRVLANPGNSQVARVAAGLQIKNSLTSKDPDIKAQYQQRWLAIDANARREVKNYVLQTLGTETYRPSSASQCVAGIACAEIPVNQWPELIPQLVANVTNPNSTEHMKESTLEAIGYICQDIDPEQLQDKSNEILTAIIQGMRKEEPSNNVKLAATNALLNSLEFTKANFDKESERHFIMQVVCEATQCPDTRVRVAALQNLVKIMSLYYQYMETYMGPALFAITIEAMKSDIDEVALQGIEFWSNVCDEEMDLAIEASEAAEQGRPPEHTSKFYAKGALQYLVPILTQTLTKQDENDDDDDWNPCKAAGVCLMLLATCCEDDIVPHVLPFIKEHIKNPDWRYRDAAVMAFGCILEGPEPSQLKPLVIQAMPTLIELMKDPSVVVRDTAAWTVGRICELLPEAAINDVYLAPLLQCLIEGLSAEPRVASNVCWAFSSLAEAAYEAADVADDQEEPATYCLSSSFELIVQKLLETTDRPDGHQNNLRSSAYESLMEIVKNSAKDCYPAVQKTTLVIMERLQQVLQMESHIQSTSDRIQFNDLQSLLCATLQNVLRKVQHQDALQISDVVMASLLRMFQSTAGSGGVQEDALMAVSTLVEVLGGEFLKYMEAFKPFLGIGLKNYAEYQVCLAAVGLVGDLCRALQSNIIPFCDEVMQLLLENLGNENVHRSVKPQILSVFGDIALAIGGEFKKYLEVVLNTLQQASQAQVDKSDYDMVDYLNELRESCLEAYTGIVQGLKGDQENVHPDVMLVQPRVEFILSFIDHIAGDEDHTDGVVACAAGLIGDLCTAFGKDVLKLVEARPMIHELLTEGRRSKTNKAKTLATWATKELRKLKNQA

What was measured:
Assay in all cases: co-IP
[1] = biological target: N-terminal FLAG-tagged L1CAM (N-L1CAM; PB-CAG-FLAG-L1CAM-HA) (UniProt P32004)
[2] = biological target: L1CAM (full-length L1CAM of the co-IP in Figure 4G) (UniProt P32004)
[3] = biological target: L1CAM, endogenous in ENCCs (human (endogenous in hiPSC-derived ENCCs)) (UniProt P32004)
[4] = biological target: N-terminal FLAG-tagged L1CAM (N-L1CAM; PB-CAG-FLAG-L1CAM-HA) (UniProt P32004); remark: listed apart in the source

binding [2]: binds
Molecule: KPNB1 (nuclear import protein, co-IP in Figure 4G) (from UniProt Q14974 1-876)

binding [3]: binds
B2: FUT8 tagged with FLAG and EGFP-APEX2 (PB-CAG-FLAG-FUT8-EGFP-APEX2) (enzyme, UniProt Q9BYC5 1-575)
chain: MRPWTGSWRWIMLILFAWGTLLFYIGGHLVRDNDHPDHSSRELSKILAKLERLKQQNEDLRRMAESLRIPEGPIDQGPAIGRVRVLEEQLVKAKEQIENYKKQTRNGLGKDHEILRRRIENGAKELWFFLQSELKKLKNLEGNELQRHADEFLLDLGHHERSIMTDLYYLSQTDGAGDWREKEAKDLTELVQRRITYLQNPKDCSKAKKLVCNINKGCGYGCQLHHVVYCFMIAYGTQRTLILESQNWRYATGGWETVFRPVSETCTDRSGISTGHWSGEVKDKNVQVVELPIVDSLHPRPPYLPLAVPEDLADRLVRVHGDPAVWWVSQFVKYLIRPQPWLEKEIEEATKKLGFKHPVIGVHVRRTDKVGTEAAFHPIEEYMVHVEEHFQLLARRMQVDKKRVYLATDDPSLLKEAKTKYPNYEFISDNSISWSAGLHNRYTENSLRGVILDIHFLSQADFLVCTFSSQVCRVAYEIMQTLHPDASANFHSLDDIYYFGGQNAHNQIAIYAHQPRTADEIPMEPGDIIGVAGNHWDGYSKGVNRKLGRTGLYPSYKVREKIETVKYPTYPEAEK

Continued, molecule first:

Molecule: KPNB1 (importin-β1) tagged with an N-terminal FLAG and C-terminal EGFP-APEX2 (PB-CAG-FLAG-KPNB1-EGFP-APEX2) (from UniProt Q14974 1-876)
binding [1]: binds

B1: FUT8 (fucosyltransferase 8), endogenous in ENCCs (enzyme, UniProt Q9BYC5 1-575)
chain: B2 chain
binding [3]: binds
binding [4]: binds
